Laboratory results reported in US4874844A, “Tripeptide with immunostimulating activity” (Ellem Industria Farmaceutica S.p.A., priority 1986, dated 1989).
At least one peptide structure holds a part that was inferred or is arguable (an end, a ring closure or a residue). Peptide text beside a SMILES is read from it.

System: human peripheral blood mononuclear cells (PBMC)
Assay: In vitro stimulation of lymphokine production: BCGF activity of PBMC supernatants on long term cultured B cells
Type: cell-based
Conditions: Supt. from PBL + PHA + ELS1 (1 ug/ml)

N=C(N)NCCC[C@H](N)C(=O)N[C@@H](CCCCN)C(=O)N[C@@H](CCC(=O)O)C(=O)O [ELS1, Arg-Lys-Glu] (H-Arg-Lys-Glu-OH)
BCGF ACTIVITY (C.P.M.) (EXPERIMENT 1, 3.05 % Sup.): 684 C.P.M.
BCGF ACTIVITY (C.P.M.) (EXPERIMENT 1, 6.25 % Sup.): 1658 C.P.M.
BCGF ACTIVITY (C.P.M.) (EXPERIMENT 1, 12.5 % Sup.): 2863 C.P.M.
BCGF ACTIVITY (C.P.M.) (EXPERIMENT 1, 25 % Sup.): 5600 C.P.M.
BCGF ACTIVITY (C.P.M.) (EXPERIMENT 1, 50 % Sup.): 7838 C.P.M.
BCGF ACTIVITY (C.P.M.) (EXPERIMENT 2, 3.125 % Sup.): 1586 C.P.M.
BCGF ACTIVITY (C.P.M.) (EXPERIMENT 2, 6.25 % Sup.): 2837 C.P.M.
BCGF ACTIVITY (C.P.M.) (EXPERIMENT 2, 12.5 % Sup.): 3994 C.P.M.
BCGF ACTIVITY (C.P.M.) (EXPERIMENT 2, 25 % Sup.): 7728 C.P.M.
BCGF ACTIVITY (C.P.M.) (EXPERIMENT 2, 50 % Sup.): 10886 C.P.M.
